Experimental data: the supplement of paper PMC12823440, “Inhibitors supercharge kinase turnover through native proteolytic circuits” (Nature, 2025)
Counter-ions that a name gives are not always drawn. Some of the results follow. Hit calls seldom repeat between salt and free forms of one compound.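 Kinases were expressed as nanoluciferase fusions in K562 cells and luminescence was read every 4 h between 2 and 18 h as percent of control, DMSO set to 100% and a positive control to 0%. A time point counts as decreased when the signal drops significantly (2 sigma). The hit call is the authors' own, does not follow from the count of time points alone, and its rule is not shown.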

Chains of the proteins cited; added tags and fusions are not shown. Lines headed by an entry give the natural chain unless they say otherwise; changes in a name come on top.
UniProt P48729: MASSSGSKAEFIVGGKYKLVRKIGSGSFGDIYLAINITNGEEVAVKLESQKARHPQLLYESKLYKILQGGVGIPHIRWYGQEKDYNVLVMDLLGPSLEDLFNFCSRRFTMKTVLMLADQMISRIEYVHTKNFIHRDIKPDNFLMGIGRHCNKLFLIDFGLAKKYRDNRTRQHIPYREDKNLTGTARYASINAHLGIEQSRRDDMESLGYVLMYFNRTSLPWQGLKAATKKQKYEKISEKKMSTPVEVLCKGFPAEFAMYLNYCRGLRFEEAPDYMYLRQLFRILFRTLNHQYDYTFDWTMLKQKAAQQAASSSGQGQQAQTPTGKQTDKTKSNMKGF
UniProt P48730: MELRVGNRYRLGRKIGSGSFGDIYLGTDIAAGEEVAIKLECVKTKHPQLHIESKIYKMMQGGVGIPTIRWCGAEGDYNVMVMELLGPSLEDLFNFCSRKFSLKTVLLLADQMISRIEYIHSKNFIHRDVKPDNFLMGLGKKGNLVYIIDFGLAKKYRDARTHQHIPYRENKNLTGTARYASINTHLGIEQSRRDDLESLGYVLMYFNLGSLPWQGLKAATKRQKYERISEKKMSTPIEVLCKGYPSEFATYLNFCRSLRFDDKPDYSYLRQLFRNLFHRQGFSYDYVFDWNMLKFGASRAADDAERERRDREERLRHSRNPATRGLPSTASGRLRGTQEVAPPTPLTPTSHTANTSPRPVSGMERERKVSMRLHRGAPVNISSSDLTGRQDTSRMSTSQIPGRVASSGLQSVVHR
UniProt Q08345: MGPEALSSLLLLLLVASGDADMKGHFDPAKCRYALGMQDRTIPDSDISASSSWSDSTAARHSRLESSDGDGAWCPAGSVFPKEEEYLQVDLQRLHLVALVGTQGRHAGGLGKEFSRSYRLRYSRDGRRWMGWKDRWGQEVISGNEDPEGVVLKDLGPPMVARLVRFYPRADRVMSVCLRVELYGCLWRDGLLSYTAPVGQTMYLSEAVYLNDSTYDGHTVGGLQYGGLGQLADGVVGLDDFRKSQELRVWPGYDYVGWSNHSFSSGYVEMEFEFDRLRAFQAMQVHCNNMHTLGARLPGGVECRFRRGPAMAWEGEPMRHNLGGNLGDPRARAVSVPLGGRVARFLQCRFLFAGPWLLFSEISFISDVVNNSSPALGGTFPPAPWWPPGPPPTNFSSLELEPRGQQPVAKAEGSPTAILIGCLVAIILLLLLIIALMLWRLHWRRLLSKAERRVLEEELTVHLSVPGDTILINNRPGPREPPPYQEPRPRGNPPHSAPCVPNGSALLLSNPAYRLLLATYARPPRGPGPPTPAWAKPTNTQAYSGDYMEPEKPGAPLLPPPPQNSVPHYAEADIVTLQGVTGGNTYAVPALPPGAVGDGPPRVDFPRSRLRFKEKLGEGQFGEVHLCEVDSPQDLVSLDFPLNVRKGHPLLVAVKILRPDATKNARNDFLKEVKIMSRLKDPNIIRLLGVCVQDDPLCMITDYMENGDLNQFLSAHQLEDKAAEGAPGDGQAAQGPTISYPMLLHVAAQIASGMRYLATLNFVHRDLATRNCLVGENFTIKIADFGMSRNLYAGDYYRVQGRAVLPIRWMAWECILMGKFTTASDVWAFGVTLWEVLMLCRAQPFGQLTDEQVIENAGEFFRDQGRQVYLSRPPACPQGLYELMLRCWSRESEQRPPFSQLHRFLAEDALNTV
UniProt Q9Y463, whole entry, looked up: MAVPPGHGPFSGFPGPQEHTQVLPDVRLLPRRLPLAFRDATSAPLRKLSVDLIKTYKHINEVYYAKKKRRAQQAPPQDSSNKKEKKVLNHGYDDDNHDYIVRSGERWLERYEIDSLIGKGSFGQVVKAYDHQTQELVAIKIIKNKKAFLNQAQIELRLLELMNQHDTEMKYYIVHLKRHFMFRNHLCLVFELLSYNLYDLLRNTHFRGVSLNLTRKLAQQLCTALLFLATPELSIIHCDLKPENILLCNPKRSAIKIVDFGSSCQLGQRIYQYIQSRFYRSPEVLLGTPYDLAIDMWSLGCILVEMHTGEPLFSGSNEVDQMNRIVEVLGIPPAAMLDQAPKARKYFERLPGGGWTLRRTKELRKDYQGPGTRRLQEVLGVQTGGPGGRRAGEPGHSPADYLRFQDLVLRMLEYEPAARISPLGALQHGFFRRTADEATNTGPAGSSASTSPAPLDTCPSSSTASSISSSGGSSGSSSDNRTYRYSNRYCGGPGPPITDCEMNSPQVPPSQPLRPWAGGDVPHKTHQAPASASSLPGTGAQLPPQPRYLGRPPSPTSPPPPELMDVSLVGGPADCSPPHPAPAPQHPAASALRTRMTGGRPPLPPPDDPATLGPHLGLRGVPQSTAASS
UniProt P21860, whole entry: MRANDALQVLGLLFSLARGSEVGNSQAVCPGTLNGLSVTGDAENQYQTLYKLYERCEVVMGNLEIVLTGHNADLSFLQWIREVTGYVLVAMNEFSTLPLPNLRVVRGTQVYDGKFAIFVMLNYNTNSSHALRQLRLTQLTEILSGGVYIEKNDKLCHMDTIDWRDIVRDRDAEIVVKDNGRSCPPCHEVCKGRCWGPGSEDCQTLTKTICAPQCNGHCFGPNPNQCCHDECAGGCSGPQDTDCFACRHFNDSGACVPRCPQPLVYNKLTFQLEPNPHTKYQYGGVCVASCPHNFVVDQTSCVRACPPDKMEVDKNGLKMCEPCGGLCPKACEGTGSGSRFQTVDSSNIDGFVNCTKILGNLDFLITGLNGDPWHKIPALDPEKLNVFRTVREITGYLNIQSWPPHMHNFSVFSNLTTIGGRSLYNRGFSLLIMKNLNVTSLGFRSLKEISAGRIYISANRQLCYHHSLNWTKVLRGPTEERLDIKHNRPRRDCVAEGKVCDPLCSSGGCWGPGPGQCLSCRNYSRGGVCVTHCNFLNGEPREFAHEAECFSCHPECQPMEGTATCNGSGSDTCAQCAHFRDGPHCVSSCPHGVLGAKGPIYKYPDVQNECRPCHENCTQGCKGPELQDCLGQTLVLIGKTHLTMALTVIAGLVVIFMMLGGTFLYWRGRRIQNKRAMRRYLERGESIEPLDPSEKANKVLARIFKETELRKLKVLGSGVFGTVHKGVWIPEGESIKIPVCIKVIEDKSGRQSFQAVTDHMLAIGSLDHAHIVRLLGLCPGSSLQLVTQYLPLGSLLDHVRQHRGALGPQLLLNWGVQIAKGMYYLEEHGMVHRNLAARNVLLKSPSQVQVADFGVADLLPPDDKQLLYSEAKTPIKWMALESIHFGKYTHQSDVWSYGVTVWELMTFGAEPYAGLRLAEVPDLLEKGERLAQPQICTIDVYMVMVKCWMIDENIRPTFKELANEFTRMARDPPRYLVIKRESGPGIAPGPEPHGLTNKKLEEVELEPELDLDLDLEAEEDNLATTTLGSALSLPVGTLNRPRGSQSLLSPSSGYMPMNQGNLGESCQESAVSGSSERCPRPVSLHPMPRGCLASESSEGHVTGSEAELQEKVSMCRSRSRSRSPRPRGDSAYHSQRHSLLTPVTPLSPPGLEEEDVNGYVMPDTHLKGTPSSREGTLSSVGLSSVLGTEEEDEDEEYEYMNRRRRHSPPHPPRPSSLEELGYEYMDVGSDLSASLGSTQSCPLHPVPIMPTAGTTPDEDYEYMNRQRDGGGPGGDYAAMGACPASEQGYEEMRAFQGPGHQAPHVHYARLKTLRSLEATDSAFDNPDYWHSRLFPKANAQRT
UniProt Q15303, whole entry R711C: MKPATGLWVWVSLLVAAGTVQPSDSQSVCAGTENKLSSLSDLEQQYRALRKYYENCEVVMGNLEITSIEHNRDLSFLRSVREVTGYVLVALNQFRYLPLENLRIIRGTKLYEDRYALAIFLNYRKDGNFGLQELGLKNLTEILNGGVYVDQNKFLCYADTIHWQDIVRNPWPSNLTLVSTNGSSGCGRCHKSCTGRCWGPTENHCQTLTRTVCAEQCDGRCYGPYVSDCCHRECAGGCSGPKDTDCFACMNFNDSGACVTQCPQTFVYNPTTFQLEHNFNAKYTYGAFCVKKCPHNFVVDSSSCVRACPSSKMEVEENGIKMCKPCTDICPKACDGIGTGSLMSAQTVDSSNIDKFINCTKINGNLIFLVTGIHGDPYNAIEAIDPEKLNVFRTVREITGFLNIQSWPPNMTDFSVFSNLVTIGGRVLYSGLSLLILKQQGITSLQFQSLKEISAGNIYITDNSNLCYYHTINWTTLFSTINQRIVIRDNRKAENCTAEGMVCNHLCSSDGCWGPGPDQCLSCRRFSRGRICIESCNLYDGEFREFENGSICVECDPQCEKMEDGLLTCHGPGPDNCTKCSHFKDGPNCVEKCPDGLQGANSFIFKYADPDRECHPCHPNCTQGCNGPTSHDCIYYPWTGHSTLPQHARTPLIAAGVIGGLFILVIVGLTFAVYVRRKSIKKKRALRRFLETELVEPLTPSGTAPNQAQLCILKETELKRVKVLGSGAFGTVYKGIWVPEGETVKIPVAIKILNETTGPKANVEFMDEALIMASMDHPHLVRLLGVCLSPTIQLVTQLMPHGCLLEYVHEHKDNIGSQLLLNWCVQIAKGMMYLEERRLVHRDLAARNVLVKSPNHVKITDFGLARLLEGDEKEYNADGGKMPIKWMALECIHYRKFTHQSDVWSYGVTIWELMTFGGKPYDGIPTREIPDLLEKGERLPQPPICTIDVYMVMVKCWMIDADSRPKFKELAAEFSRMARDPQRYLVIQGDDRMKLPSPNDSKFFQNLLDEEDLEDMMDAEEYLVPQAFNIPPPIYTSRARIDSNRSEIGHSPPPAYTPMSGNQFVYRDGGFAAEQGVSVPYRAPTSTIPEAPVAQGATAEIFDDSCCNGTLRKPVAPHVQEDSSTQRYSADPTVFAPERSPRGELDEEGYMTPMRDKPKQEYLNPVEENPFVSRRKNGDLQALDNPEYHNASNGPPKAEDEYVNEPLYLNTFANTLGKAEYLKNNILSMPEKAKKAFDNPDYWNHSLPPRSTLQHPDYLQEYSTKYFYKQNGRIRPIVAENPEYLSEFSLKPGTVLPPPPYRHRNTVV
UniProt P11362, whole entry, looked up: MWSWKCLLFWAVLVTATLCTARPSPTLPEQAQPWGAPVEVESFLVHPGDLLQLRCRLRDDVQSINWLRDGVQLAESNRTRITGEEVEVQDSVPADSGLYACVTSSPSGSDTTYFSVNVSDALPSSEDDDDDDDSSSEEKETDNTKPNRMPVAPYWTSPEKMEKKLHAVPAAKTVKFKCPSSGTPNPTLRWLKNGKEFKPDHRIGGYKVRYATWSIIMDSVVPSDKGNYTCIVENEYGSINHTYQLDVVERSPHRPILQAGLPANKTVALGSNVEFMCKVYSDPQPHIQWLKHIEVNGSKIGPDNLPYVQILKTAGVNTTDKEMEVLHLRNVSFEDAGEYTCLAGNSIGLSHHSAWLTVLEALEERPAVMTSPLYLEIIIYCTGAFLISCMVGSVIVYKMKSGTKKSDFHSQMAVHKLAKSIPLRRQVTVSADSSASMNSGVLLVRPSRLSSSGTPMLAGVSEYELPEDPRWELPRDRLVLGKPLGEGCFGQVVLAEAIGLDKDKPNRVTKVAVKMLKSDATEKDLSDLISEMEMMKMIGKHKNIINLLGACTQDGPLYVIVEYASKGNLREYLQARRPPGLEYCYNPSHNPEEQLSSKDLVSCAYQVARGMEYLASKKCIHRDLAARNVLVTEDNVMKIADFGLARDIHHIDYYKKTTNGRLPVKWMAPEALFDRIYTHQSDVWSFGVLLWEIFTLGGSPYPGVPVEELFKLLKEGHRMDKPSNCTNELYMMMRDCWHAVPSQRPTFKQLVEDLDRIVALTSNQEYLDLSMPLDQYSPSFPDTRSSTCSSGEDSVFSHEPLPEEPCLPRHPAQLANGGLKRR
UniProt P22607, whole entry, looked up: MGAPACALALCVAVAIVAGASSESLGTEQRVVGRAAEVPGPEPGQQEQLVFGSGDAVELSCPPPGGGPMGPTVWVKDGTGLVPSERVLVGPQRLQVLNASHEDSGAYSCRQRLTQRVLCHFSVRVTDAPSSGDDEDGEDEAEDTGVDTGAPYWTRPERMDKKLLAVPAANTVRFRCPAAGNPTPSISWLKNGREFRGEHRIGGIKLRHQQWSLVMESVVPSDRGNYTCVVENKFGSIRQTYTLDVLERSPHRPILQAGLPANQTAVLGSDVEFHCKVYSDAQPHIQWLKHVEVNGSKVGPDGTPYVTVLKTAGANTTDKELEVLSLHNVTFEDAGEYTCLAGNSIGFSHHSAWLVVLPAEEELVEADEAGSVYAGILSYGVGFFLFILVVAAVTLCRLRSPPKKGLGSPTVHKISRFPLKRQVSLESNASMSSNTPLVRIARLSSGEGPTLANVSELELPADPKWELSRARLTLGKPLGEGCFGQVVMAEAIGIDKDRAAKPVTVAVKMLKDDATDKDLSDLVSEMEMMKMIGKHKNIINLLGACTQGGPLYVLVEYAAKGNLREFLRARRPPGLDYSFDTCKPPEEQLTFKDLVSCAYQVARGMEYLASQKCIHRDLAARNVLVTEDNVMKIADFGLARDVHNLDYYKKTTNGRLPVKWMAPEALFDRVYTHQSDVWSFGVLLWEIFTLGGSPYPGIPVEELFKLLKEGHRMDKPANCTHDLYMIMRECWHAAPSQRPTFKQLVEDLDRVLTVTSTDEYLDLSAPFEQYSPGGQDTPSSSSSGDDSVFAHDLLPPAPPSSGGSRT

Tests used:
Test in all cases: number of time points (of 5) at which kinase-Nluc abundance scored as decreased, DMSO-normalised (count); higher = more persistent destabilization
Details in all cases: K562; 2-18 h
CSNK1A1 = CSNK1A1 (UniProt P48729)
CSNK1D = CSNK1D (UniProt P48730)
DDR1 = DDR1 (UniProt Q08345)
DYRK1B = DYRK1B (UniProt Q9Y463)
DYRK2 = DYRK2 (UniProt Q92630)
EGFR = EGFR (UniProt P00533)
EGFR_G719S = EGFR_G719S (UniProt P00533)
EGFR_G719S_T790M = EGFR_G719S_T790M (UniProt P00533)
EGFR_L718V = EGFR_L718V (UniProt P00533)
EGFR_L858R = EGFR_L858R (UniProt P00533)
EGFR_L861Q = EGFR_L861Q (UniProt P00533)
EGFR_T790M = EGFR_T790M (UniProt P00533)
EPHA2 = EPHA2 (UniProt P29317)
ERBB3 = ERBB3 (UniProt P21860)
[1] = target: ERBB4_R711C (clone: ERBB4_mut) (UniProt Q15303)
ERN1 = ERN1 (UniProt O75460)
FGFR1 = FGFR1 (UniProt P11362)
FGFR2 = FGFR2 (UniProt P21802)
FGFR3 = FGFR3 (UniProt P22607)
FGR = FGR (UniProt P09769)

Compound | number of time points (CSNK1A1) | number of time points (CSNK1D) | number of time points (DDR1) | number of time points (DYRK1B) | number of time points (DYRK2) | number of time points (EGFR) | number of time points (EGFR_G719S) | number of time points (EGFR_G719S_T790M) | number of time points (EGFR_L718V) | number of time points (EGFR_L858R) | number of time points (EGFR_L861Q) | number of time points (EGFR_T790M) | number of time points (EPHA2) | number of time points (ERBB3) | number of time points [1] | number of time points (ERN1) | number of time points (FGFR1) | number of time points (FGFR2) | number of time points (FGFR3) | number of time points (FGR)
COc1ccc2nc3ccc(OC)cc3c(SCCCN)c2c1 (10 µM) | 0 | 0 | 2 | 2 | 0 | 0 | 0 | 0 | 2 | 3 | 3 | 0 | 0 | 0 | 0 | 3 | 0 | 2 | 0 | 2
CNCc1ccccc1Sc1cccc2ccccc12 [IFN alpha-IFNAR-IN-1 (hydrochloride)] (10 µM) | 0 | 0 | 1 | 1 | 2 | 0 | 2 | 2 | 1 | 1 | 2 | 0 | 0 | 2 | 3 | 0 | 0 | 2 | 0 | 0
Fc1ccc(Cl)cc1-c1nc(Nc2ccncc2)c2nccnc2n1 (10 µM) | 0 | 0 | 0 | 0 | 0 | 0 | 0 | 0 | 0 | 0 | 0 | 0 | 0 | 0 | 0 | 0 | 0 | 0 | 0 | 0
COc1cc(Nc2ccnc3ccc(Br)cc23)cc(OC)c1OC (2.5 µM) | 0 | 0 | 0 | 0 | 1 | 0 | 0 | 0 | 0 | 1 | 0 | 0 | 0 | 0 | 1 | 0 | 0 | 0 | 0 | 0
Cn1cnc2c(F)c(Nc3ccc(Br)cc3F)c(C(=O)NOCCO)cc21 [Binimetinib] (10 µM) | 0 | 0 | 1 | 0 | 1 | 0 | 0 | 0 | 0 | 0 | 0 | 0 | 0 | 0 | 0 | 0 | 0 | 3 | 0 | 0
O=C(Nc1ccc(Cl)cc1)C1CN(C(=O)c2cccc(-c3ccco3)c2)CC(F)(F)C1 (stereo not given) (2.5 µM) | 0 | 0 | 0 | 0 | 0 | 0 | 0 | 0 | 0 | 0 | 0 | 0 | 0 | 0 | 0 | 0 | 0 | 0 | 0 | 0
O=C1CCC(N2C(=O)c3cccc(OCCCCCOc4ccc(CC(=O)Nc5cc(C6CCC6)[nH]n5)cc4)c3C2=O)C(=O)N1 (stereo not given) [PROTAC CDK9 Degrader-1] (10 µM) | 1 | 0 | 0 | 0 | 0 | 0 | 0 | 0 | 0 | 0 | 2 | 0 | 0 | 2 | 3 | 0 | 0 | 0 | 0 | 0
N#CC(=C(/N)Sc1ccccc1N)/C(C#N)=C(\N)Sc1ccccc1N (10 µM) | 0 | 0 | 0 | 0 | 0 | 0 | 0 | 0 | 0 | 0 | 0 | 0 | 0 | 0 | 0 | 0 | 0 | 0 | 0 | 0
COc1cc2c(cc1OC)[C@@H]1C(=O)c3ccc4c(c3O[C@@H]1CO2)C=CC(C)(C)O4 [Deguelin] (10 µM) | 0 | 0 | 0 | 0 | 0 | 0 | 0 | 0 | 0 | 0 | 0 | 0 | 0 | 0 | 1 | 0 | 0 | 0 | 0 | 0
O=C(Nc1ccccc1C(=O)NC1CCCCNC1=O)c1cc2ccccc2s1 (stereo not given) (10 µM) | 0 | 0 | 0 | 0 | 0 | 0 | 0 | 0 | 0 | 0 | 0 | 0 | 0 | 0 | 0 | 0 | 0 | 0 | 0 | 0
O=C(O)/C=C(\CCc1ccc(Cl)cc1)c1ccccc1 (10 µM) | 0 | 0 | 0 | 0 | 0 | 0 | 0 | 0 | 0 | 0 | 0 | 0 | 0 | 0 | 0 | 0 | 0 | 0 | 0 | 0
CN(C)c1cc[n+](Cc2ccc(OCCOc3ccc(C[n+]4ccc(N(C)C)cc4)cc3)cc2)cc1 (10 µM) | 0 | 0 | 0 | 0 | 0 | 0 | 0 | 0 | 0 | 0 | 0 | 0 | 0 | 0 | 0 | 0 | 0 | 0 | 0 | 0
CC1=CC(=O)C(C(C)C)=C/C1=N/OC(=O)c1ccccc1C [Poloxin] (2.5 µM) | 0 | 0 | 0 | 0 | 0 | 0 | 0 | 0 | 0 | 0 | 0 | 0 | 0 | 0 | 0 | 0 | 0 | 0 | 0 | 0
CNCCOc1ccccc1C1(Nc2nccn(-c3cc(C(=O)NC4CC4)cc(F)c3C)c2=O)CC1 (10 µM) | 0 | 0 | 0 | 0 | 0 | 0 | 0 | 0 | 0 | 0 | 0 | 0 | 0 | 0 | 0 | 0 | 0 | 0 | 0 | 0
CN1CCN(Cc2ccc(-c3cnc4[nH]cc(-c5ccc6[nH]ccc6c5)c4c3)cc2)CC1 (2.5 µM) | 0 | 0 | 1 | 0 | 0 | 0 | 0 | 0 | 0 | 1 | 0 | 0 | 0 | 4 | 0 | 0 | 0 | 3 | 0 | 0
O=c1cc(N2CCOCC2)oc2c(-c3cccc4c3sc3ccccc34)cccc12 (10 µM) | 0 | 0 | 0 | 0 | 0 | 0 | 0 | 0 | 0 | 0 | 0 | 0 | 0 | 0 | 0 | 0 | 0 | 0 | 0 | 0
CCOc1cc(N2CCC(O)CC2)ccc1Nc1ncc2c(n1)N(C1CCCC1)CCC(=O)N2C (2.5 µM) | 0 | 0 | 0 | 0 | 0 | 0 | 0 | 0 | 0 | 0 | 0 | 0 | 0 | 0 | 0 | 0 | 0 | 0 | 0 | 0
CN(C[C@@H]1COCCO1)S(=O)(=O)Nc1ccc2ccc3ncc(-c4cnn(C)c4)cc3c(=O)c2c1 (2.5 µM) | 0 | 0 | 0 | 0 | 0 | 0 | 0 | 0 | 0 | 0 | 0 | 0 | 0 | 0 | 0 | 0 | 0 | 0 | 0 | 0
CC(C)c1cc2c(c(O)c1O)[C@@]13CCCC(C)(C)[C@@H]1C[C@@H]2OC3=O [Carnosol] (2.5 µM) | 0 | 0 | 0 | 0 | 0 | 0 | 0 | 0 | 0 | 0 | 0 | 0 | 0 | 0 | 0 | 0 | 0 | 0 | 0 | 0
O=C(Nc1ccnc(NC(=O)C2CC2)c1)c1c(Cl)cccc1Cl (10 µM) | 0 | 0 | 0 | 0 | 3 | 0 | 0 | 0 | 0 | 0 | 1 | 0 | 0 | 2 | 2 | 0 | 0 | 3 | 0 | 0
N#Cc1cnc(Nc2cc(NC[C@H]3CNCCO3)c(C(F)(F)F)cn2)cn1 (10 µM) | 0 | 0 | 0 | 0 | 0 | 4 | 2 | 1 | 0 | 2 | 3 | 0 | 1 | 2 | 1 | 1 | 0 | 1 | 1 | 0
Nc1ccc(O)c(C(=O)O)c1 [5-Aminosalicylic Acid] (10 µM) | 0 | 0 | 0 | 0 | 0 | 0 | 0 | 0 | 0 | 0 | 0 | 0 | 0 | 0 | 0 | 0 | 0 | 0 | 0 | 0
Cc1ccc(NC(=O)N2CCN(c3nc(N)nc4sc(-c5cccnc5)nc34)CC2)cc1 [PI4KIII beta inhibitor 3] (10 µM) | 0 | 0 | 0 | 0 | 0 | 0 | 0 | 0 | 0 | 0 | 0 | 0 | 0 | 0 | 0 | 0 | 0 | 0 | 0 | 0
CCCCNc1ncc(C(=O)NCc2ccc(-n3ccnc3)cc2)c(NC2CCC(O)CC2)n1 (stereo not given) (10 µM) | 0 | 0 | 5 | 0 | 0 | 3 | 0 | 4 | 0 | 0 | 1 | 0 | 0 | 0 | 2 | 0 | 0 | 0 | 0 | 0
O=C1C=CC2=C3c4cc(O)c(O)cc4CC3(O)COC2=C1O (stereo not given) [Hematein] (10 µM) | 0 | 0 | 0 | 0 | 0 | 0 | 0 | 0 | 0 | 0 | 0 | 0 | 0 | 0 | 0 | 0 | 0 | 0 | 0 | 0

2 records drawn at random from those above, as already listed:
Compound | number of time points (CSNK1A1) | number of time points (CSNK1D) | number of time points (DDR1) | number of time points (DYRK1B) | number of time points (DYRK2) | number of time points (EGFR) | number of time points (EGFR_G719S) | number of time points (EGFR_G719S_T790M) | number of time points (EGFR_L718V) | number of time points (EGFR_L858R) | number of time points (EGFR_L861Q) | number of time points (EGFR_T790M) | number of time points (EPHA2) | number of time points (ERBB3) | number of time points [1] | number of time points (ERN1) | number of time points (FGFR1) | number of time points (FGFR2) | number of time points (FGFR3) | number of time points (FGR)
O=C(O)/C=C(\CCc1ccc(Cl)cc1)c1ccccc1 (10 µM) | 0 | 0 | 0 | 0 | 0 | 0 | 0 | 0 | 0 | 0 | 0 | 0 | 0 | 0 | 0 | 0 | 0 | 0 | 0 | 0
CCOc1cc(N2CCC(O)CC2)ccc1Nc1ncc2c(n1)N(C1CCCC1)CCC(=O)N2C (2.5 µM) | 0 | 0 | 0 | 0 | 0 | 0 | 0 | 0 | 0 | 0 | 0 | 0 | 0 | 0 | 0 | 0 | 0 | 0 | 0 | 0
